From PMC4815241 (Protein Science : A Publication of the Protein Society, 2015)
No constants are given. Whether binding was seen depends on the method and setting.

Biological target: human eIF4GII residues 551–745 (human) (UniProt O43432)
Test: SEC-MALS; Superdex 200 10/300 in assay buffer, miniDAWN light scattering instrument, 100 µg sample; both purified

B1: human eIF4GII residues 551–745 (domain or fragment, UniProt O43432 551-745, looked up)
chain: GFHPERDPSDLKKVKAVEENGEEAEPVRNGAESVSEGEGIDANSGSTDSSGDGVTFPFKPESWKPTDTEGKKQYDREFLLDFQFMPACIQKPEGLPPISDVVLDKINQPKLPMRTLDPRILPRGPDFTPAFADFGRQTPGGRGVPLLNVGSRRSQPGQRREPRKIITVSVKEDVHLKKAENAWKPSQKRDSQADD
- binding: no binding
